Data taken from PubChem BioAssay AID493014 (National Center for Advancing Translational Sciences (NCATS), 2011).
The other results are listed elsewhere or left out. The main result of the screen is listed elsewhere. These columns were measured beside it and carry no call. Most of these compounds were active or inconclusive in the main read-out, so they are no random draw. Words in brackets tell the shape of the fitted curve; partial curves, single points and poor fits give uncertain potencies.

Assay: qHTS Assay to Find Inhibitors of Chronic Active B-Cell Receptor Signaling
Conditions: ABC-DLBCL IkBa-CBG/CBR reporter, luminescence ratio (green luciferase fused to IkBa over red control in TMD8 lymphoma cells), 4 h
Method in brief: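 Concentration-response series (up to 46 uM) were applied to TMD8 dual-reporter cells for 4 h at 37C with doxycycline. Green/red ratio, after filter-overlap correction, defined %Activity; red signal alone was normalised to basal cells and zero luminescence.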

[1] = measured here: CBR red luminescence, cell number
[2] = measured here: IkBa-CBG green luminescence

SMILES	AC50 [1]	AC50 [2]
Cc1ccc(NC(=O)c2ccc([N+](=O)[O-])cc2)cc1S(=O)(=O)N(C)C	0.708 µM [rising, partial curve, poor fit]	–
Clc1ccc(OCc2cnc(Cl)s2)cc1	10 µM [rising, partial curve]	–
Cc1ccc(OCC(=O)N2CCN(C(=O)CCC3CCCC3)CC2)cc1	0.00411 µM [rising, full curve, poor fit]	–
CCOC(=O)/C(=C/c1c(C)n(C)c2ccc([N+](=O)[O-])cc12)C(C)=O	10.3 µM [falling, partial curve]	–
CN(C)CCn1c2c(c(SCC(=O)Nc3cccc4ccccc34)nc1=O)CCCC2	16.4 µM [falling, single point]	–
O=C(NNC(=O)c1ccc2c(=O)n3c(nc2c1)CCC3)c1cccc(Cl)c1	29.1 µM [falling, single point]	–
CCN(CC)C(=O)Cn1cc(C(=O)C(=O)N2CCc3ccccc32)c2ccccc21	7.94 µM [falling, partial curve]	–
CC(Oc1ccc2c(-c3ccccc3)cc(=O)oc2c1)C(=O)N1CCOCC1 (stereo not drawn)	23.1 µM [rising, partial curve, poor fit]	–
Cc1ccc(S(=O)(=O)N/N=C/c2c[nH]c3ccccc23)cc1	11.2 µM [falling, partial curve, poor fit]	–
CCSc1nc2cc(OC)c(OC)cc2c(=O)n1CC	32.6 µM [falling, single point]	–
COc1cc2c(cc1NC(=O)COC(=O)[C@@H](NS(=O)(=O)c1ccccc1)C(C)C)oc1ccccc12	14.6 µM [falling, partial curve, poor fit]	–
OCCC1CN(Cc2nc3ccccc3s2)CCN1C1CCCC1 (stereo not drawn)	35.5 µM [rising, partial curve, poor fit]	–
COC(=O)c1cc2ccsc2n1Cc1cccc(F)c1	16.4 µM [rising, single point]	–
CCCCc1ccc(NC(=O)C2CCCO2)cc1 (stereo not drawn)	18.4 µM [falling, single point]	–
Cn1c(-c2ccc(C(C)(C)C)cc2)n[nH]c1=S	0.58 µM [falling, partial curve]	–
O=C(Nc1ccc(Cl)cc1)C1=Cc2cc(Cl)ccc2OC1	11.6 µM [rising, partial curve]	–

SMILES	AC50 [1]	AC50 [2]
CC(=O)Nc1ccc(S(=O)(=O)N[C@@H](C)C(=O)OCc2ccc(Cl)cc2)cc1	13 µM [rising, partial curve, poor fit]	–
Nc1c(C(=O)NCC2CCCO2)sc2nc3c(c(-c4ccco4)c12)CC/C3=C\c1ccco1 (stereo not drawn)	9.2 µM [falling, partial curve]	–
Cn1c(N)c(C(=O)Nc2ccccc2F)sc1=S	11.2 µM [falling, partial curve, poor fit]	–
O=C(c1cccc2c1-c1ccccc1C2)N1CCCCC1	8.91 µM [rising, partial curve, poor fit]	–
O=C(Nc1ccc(F)cc1F)c1ccc2ncsc2c1	14.1 µM [falling, partial curve]	–
CC1(C)NC(=O)N(CCCCOc2ccc(Cl)cc2C=O)C1=O	–	25.1 µM [falling, single point]
Cc1csc(SCC(=O)Nc2c(C)n(C)n(-c3ccccc3)c2=O)n1	0.0058 µM [falling, full curve, poor fit]	–
OCCCc1nc2n(n1)C(c1ccccc1)C=C(c1ccc(F)cc1)N2 (stereo not drawn)	11.6 µM [falling, single point]	–
CN(CC(=O)Nc1ccc(F)cc1)C(=O)COC(=O)CSc1ccc(F)cc1	4.61 µM [falling, full curve, poor fit]	–
Cc1nn(-c2nnc(NC3CCCCC3)nn2)c(C)c1Br	9.2 µM [falling, partial curve]	–
COC(=O)c1ccc2c(=O)n(CCCCCC(=O)N3CCN(c4cccc(C)c4C)CC3)c(=O)[nH]c2c1	35.5 µM [falling, single point]	–
COc1ccc(/C=N/NC(=O)c2cccc(NC(=O)c3ccc(F)cc3)c2)c(C(=O)O)c1OC	1.26 µM [falling, full curve, poor fit]	–
COc1cccc(NC(=O)C2CCCN2C(=O)Nc2cccc(F)c2)c1 (stereo not drawn)	8.2 µM [rising, partial curve, poor fit]	–
Cc1cc(-c2ccc(Cl)s2)n[nH]1	2.82 µM [rising, partial curve, poor fit]	–
NC(=O)c1ccsc1NC(=O)c1ccc(S(=O)(=O)N2CCCCC2)cc1	29.1 µM [falling, single point]	–
Cc1cc(C)nc(NC(=O)c2c(-c3ccccc3Cl)noc2C)c1	18.4 µM [falling, partial curve, poor fit]	23.1 µM [rising, partial curve, poor fit]

Reformatted as labelled records: entries from further up.
OCCCc1nc2n(n1)C(c1ccccc1)C=C(c1ccc(F)cc1)N2 (stereo not drawn)
  AC50 [1]: 11.6 µM [falling, single point]
CN(CC(=O)Nc1ccc(F)cc1)C(=O)COC(=O)CSc1ccc(F)cc1
  AC50 [1]: 4.61 µM [falling, full curve, poor fit]
